The supplement of paper PMC10849652
The list shows a part of the results.

By UniProt entry, the sequences of proteins in these tests, tags left out. Where a name states a change or a piece, a line headed by the entry shows the natural chain unless it says otherwise.
UniProt P26447: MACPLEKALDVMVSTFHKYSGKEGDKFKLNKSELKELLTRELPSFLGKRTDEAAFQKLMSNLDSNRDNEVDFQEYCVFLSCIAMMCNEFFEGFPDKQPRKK
UniProt Q96NL6: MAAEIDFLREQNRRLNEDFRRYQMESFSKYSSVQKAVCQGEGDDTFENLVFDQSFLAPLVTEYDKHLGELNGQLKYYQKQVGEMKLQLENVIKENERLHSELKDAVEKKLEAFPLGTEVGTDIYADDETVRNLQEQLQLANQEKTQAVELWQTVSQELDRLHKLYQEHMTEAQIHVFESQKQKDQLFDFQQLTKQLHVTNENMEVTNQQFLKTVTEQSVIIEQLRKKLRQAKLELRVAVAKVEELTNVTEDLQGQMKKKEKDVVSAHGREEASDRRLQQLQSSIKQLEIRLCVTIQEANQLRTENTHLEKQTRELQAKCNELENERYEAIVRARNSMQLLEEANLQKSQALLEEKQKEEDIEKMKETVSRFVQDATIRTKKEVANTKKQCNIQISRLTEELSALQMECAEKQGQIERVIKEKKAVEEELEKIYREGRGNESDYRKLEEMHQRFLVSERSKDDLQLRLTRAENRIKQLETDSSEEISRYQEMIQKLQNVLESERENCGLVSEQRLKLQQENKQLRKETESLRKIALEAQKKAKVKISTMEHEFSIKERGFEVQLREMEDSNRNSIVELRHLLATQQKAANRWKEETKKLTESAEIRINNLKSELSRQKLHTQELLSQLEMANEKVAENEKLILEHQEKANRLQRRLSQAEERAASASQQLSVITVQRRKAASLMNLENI
UniProt Q6UWP8: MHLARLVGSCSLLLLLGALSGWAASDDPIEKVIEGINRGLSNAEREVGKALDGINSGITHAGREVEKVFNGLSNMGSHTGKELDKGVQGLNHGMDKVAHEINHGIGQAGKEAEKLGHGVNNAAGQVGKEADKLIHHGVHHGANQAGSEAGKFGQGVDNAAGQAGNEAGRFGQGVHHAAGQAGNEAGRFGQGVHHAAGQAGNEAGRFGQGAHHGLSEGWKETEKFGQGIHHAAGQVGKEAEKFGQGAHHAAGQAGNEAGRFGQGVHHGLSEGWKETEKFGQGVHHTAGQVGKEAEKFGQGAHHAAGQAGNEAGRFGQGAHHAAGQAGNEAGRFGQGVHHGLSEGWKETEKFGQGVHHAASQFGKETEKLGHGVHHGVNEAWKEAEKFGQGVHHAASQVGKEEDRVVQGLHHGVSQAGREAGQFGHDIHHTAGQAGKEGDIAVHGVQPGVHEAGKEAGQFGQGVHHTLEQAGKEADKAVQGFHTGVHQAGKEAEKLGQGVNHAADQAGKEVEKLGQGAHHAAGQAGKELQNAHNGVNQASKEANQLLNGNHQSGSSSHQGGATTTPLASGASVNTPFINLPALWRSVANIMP
UniProt Q96FQ6: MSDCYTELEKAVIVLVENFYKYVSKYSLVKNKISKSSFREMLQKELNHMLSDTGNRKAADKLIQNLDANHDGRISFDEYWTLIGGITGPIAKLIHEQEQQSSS
UniProt Q86WG5: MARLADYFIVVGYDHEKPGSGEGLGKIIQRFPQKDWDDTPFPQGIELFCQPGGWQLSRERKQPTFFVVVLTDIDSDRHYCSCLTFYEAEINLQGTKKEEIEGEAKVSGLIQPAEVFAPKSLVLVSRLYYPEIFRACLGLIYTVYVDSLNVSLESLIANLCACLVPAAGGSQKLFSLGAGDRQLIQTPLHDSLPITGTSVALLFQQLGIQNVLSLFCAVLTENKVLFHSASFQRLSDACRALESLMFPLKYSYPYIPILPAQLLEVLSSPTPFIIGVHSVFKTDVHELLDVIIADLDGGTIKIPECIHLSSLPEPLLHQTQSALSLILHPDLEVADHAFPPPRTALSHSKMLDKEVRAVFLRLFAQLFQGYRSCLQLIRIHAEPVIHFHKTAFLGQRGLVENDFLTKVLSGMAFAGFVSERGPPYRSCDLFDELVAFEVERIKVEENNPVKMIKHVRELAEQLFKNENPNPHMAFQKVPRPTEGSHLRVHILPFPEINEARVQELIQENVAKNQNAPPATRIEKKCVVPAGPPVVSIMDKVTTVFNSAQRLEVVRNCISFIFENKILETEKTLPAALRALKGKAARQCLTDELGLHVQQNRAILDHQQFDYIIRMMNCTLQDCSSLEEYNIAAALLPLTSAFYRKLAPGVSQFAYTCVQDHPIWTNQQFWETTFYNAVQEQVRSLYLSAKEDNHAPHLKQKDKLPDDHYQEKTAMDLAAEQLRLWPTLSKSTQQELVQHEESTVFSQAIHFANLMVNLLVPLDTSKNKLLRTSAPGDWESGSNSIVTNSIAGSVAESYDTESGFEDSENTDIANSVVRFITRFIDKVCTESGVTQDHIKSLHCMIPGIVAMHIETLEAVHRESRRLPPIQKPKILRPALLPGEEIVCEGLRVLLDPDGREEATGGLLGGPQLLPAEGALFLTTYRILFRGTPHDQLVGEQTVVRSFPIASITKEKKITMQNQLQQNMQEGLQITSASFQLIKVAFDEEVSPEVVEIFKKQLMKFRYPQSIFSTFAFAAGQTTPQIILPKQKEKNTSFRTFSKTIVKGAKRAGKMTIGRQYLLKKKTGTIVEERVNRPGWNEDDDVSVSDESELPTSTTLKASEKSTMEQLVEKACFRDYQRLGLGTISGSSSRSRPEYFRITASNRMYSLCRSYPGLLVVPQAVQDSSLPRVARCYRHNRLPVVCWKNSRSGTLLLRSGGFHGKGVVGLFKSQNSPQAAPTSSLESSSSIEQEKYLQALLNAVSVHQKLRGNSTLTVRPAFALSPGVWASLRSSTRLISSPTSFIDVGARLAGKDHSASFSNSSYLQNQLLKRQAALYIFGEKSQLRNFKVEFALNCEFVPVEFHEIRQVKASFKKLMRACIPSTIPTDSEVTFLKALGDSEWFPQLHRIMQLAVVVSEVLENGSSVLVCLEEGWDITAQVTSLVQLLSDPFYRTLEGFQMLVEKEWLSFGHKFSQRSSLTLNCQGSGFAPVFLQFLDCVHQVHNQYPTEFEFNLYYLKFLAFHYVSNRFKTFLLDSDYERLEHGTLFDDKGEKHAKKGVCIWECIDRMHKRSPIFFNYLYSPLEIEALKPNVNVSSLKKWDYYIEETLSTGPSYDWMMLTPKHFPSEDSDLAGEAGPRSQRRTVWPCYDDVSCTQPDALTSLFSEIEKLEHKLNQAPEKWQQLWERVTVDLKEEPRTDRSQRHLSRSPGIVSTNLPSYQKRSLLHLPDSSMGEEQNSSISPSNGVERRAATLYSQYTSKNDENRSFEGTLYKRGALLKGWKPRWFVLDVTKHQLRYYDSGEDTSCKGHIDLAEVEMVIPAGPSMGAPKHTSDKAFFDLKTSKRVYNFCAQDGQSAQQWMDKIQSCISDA
UniProt P29034: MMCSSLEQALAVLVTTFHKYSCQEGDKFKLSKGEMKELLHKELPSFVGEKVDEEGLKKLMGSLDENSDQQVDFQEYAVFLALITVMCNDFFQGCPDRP
UniProt Q9H0E3: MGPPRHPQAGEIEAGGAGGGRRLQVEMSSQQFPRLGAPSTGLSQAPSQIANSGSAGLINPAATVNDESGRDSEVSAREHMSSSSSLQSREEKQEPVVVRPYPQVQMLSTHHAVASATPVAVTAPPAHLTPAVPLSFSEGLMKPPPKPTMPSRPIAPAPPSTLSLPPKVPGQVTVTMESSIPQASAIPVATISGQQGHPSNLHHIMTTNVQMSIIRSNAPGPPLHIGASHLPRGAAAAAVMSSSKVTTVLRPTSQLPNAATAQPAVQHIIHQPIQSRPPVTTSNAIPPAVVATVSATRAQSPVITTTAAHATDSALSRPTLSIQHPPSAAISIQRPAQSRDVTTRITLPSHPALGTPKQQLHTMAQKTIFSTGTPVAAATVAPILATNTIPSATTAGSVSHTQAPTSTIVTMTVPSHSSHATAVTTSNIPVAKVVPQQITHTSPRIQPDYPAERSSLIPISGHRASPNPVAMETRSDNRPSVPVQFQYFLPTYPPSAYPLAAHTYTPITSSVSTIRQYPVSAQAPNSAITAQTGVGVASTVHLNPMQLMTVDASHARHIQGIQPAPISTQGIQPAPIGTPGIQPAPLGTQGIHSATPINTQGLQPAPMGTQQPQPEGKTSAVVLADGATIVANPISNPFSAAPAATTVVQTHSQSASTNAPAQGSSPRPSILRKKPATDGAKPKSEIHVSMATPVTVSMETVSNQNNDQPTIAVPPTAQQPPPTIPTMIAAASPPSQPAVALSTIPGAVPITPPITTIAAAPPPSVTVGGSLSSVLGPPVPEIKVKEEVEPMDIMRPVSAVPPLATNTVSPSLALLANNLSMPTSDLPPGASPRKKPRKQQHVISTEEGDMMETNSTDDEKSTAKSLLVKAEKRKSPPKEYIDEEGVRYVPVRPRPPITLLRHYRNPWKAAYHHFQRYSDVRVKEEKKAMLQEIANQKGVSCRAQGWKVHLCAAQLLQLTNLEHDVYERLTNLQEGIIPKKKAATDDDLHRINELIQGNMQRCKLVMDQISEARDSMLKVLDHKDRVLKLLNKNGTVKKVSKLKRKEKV
UniProt Q5PRF9: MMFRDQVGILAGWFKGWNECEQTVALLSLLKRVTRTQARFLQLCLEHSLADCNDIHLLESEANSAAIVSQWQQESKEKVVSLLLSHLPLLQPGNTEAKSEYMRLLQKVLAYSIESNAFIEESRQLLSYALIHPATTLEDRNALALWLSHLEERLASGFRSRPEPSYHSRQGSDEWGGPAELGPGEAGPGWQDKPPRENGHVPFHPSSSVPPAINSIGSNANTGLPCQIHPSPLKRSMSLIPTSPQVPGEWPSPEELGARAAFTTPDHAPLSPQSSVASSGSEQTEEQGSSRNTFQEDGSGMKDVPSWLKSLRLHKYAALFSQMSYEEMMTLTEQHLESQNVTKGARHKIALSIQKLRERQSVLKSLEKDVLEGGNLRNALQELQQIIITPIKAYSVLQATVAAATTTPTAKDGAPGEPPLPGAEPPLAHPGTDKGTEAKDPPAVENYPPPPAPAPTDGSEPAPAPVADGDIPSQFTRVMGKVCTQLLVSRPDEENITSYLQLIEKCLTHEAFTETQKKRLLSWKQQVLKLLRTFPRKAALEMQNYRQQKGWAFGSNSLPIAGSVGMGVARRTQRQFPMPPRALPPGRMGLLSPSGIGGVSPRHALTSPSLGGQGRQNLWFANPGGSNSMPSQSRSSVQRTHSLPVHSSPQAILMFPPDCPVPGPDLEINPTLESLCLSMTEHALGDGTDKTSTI
UniProt Q9Y2B1: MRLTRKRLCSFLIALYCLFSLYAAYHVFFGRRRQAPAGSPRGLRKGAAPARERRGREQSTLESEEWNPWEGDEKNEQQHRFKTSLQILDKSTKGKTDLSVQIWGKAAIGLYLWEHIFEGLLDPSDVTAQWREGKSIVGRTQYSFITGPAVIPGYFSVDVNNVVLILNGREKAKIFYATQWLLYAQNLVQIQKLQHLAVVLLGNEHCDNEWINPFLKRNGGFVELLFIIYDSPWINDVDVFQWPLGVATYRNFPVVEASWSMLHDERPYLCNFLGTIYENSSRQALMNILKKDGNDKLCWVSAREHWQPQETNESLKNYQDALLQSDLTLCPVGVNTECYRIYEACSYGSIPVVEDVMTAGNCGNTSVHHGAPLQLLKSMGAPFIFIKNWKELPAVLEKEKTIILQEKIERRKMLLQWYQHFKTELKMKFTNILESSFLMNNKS
UniProt P28702: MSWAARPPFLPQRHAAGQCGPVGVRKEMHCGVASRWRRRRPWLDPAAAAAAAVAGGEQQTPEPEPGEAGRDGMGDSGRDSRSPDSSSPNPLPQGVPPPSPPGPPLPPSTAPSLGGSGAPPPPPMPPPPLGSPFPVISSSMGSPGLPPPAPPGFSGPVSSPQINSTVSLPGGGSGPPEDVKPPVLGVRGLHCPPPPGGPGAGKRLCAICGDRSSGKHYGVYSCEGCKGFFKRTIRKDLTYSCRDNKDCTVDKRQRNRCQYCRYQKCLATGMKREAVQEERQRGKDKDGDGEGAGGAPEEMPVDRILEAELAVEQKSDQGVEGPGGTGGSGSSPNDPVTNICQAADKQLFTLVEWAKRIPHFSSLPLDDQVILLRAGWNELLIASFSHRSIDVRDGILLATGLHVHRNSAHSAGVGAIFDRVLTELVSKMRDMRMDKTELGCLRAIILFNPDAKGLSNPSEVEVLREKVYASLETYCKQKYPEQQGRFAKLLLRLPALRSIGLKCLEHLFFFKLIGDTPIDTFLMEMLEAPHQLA
UniProt Q7L3V2: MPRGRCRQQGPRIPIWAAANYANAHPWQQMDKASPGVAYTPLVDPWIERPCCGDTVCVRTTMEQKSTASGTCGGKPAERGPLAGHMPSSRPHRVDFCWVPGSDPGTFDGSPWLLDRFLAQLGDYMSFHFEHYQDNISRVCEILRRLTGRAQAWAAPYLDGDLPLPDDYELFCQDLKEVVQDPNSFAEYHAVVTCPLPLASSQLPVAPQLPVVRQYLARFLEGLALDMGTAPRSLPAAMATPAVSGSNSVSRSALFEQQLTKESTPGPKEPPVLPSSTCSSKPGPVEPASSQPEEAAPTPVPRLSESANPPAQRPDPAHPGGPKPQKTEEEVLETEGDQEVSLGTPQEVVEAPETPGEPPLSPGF

Tests used:
Assay in all cases: log2 fold change, soluble protein after heating vs DMSO (PISA); higher = thermal stabilisation; K562 cells, 10 uM, 30 min; active = over 0.2 and 3.5 SD of the protein, either way, in both replicates (recomputed)
[1] = compound: CNC(=O)C1=CC=CC=C1NC2=NC(=NC=C2Cl)NC3=C(C=C(C=C3)N4CCOCC4)OC
Outline: (§1)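 Thermal stability values are relative to control samples and come from duplicates. They are expressed as log2 fold changes. For measurement, K562 cells (2×10^6 cells/mL) received 10 μM compound for 30 min, and aliquots were heated for 3 min over 48°C-58°C, pooled, and extracted at 4°C in PBS with 0.5% NP-40. Soluble protein, the supernatant after 21,000xg for 90 min, was quantified by TMTpro 16plex LC-MS/MS with equalised channel sums.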

rucaparib = compound: CNCc1ccc(-c2[nH]c3cc(F)cc4c3c2CCNC4=O)cc1 [rucaparib]
Outline: as §1

encorafenib = compound: COC(=O)N[C@@H](C)CNc1nccc(-c2cn(C(C)C)nc2-c2cc(Cl)cc(NS(C)(=O)=O)c2F)n1 [encorafenib]
Outline: as §1

saracatinib = compound: CN1CCN(CCOc2cc(OC3CCOCC3)c3c(Nc4c(Cl)ccc5c4OCO5)ncnc3c2)CC1 [saracatinib]
Outline: as §1

alvocidib = compound: CN1CC[C@H](c2c(O)cc(O)c3c(=O)cc(-c4ccccc4Cl)oc23)[C@H](O)C1 [alvocidib]
Outline: as §1

Tubastatin A = compound: CN1CCc2c(c3ccccc3n2Cc2ccc(C(=O)NO)cc2)C1 [Tubastatin A]
Outline: as §1

[2] = compound: CNc1nc(-c2ccc3c(N)n[nH]c3c2)cc(N2C[C@@H](C(=O)NC3CCCCC3)CC[C@H]2C)n1
Outline: as §1

sotrastaurin = compound: CN1CCN(c2nc(C3=C(c4c[nH]c5ccccc45)C(=O)NC3=O)c3ccccc3n2)CC1 [sotrastaurin]
Outline: as §1

defactinib = compound: CNC(=O)c1ccc(Nc2ncc(C(F)(F)F)c(NCc3nccnc3N(C)S(C)(=O)=O)n2)cc1 [defactinib]
Outline: as §1

[3] = compound: COC(=O)[C@H](CCSC)NC(=O)C1=C(C=C(C=C1)NC[C@H](CS)N)C2=CC=CC=C2
Outline: as §1

Measured: log2 fold change

S100A4 (UniProt P26447)
inactive: [1] 0.123 | rucaparib 0.043 | encorafenib 0.075

SCRIB isoform 3 (UniProt Q14160)
inactive: saracatinib 0.094 | alvocidib 0.039 | Tubastatin A 0.101 | [1] -0.273 | [2] -0.056

SCLT1 (UniProt Q96NL6)
inactive: saracatinib 0.073 | sotrastaurin -0.095 | Tubastatin A 0.116 | defactinib -0.047 | [2] 0.121 | [3] -0.087

SCYL3 isoform 2 (UniProt Q8IZE3)
inactive: saracatinib 0.014 | Tubastatin A -0.063 | [1] -0.042 | defactinib -0.014 | rucaparib 0.06 | [2] -0.009 | encorafenib 0.021 | [3] -0.025

SBSN (UniProt Q6UWP8)
inactive: rucaparib -0.451 | encorafenib -0.488

SEC22A (UniProt Q96IW7)
inactive: saracatinib 0.032 | alvocidib 0.038 | Tubastatin A 0.088 | [1] -0.085 | [2] 0.078

RUNX1 isoform 8 (UniProt Q01196)
inactive: saracatinib -0.025 | sotrastaurin -0.132 | [1] -0.046 | defactinib 0.01 | rucaparib 0.024 | [2] 0.014 | encorafenib 0.183 | [3] 0.047

S100PBP (UniProt Q96BU1)
inactive: sotrastaurin 0.037 | alvocidib -0.322 | Tubastatin A 0.141 | [1] -0.053 | defactinib -0.08 | rucaparib -0.124 | encorafenib -0.06 | [3] 0.227

RTN4 isoform 5 (UniProt Q9NQC3)
inactive: saracatinib 0.05 | alvocidib -0.06 | Tubastatin A 0.064 | [1] 0.169 | defactinib -0.085 | rucaparib 0.078 | [2] 0.033 | encorafenib -0.259 | [3] 0.077

SCGB2A2 (UniProt Q13296)
inactive: sotrastaurin 0.092 | Tubastatin A 0.338 | defactinib 0.111 | rucaparib -0.09 | encorafenib 0.05 | [3] 0.272

SAV1 (UniProt Q9H4B6)
inactive: Tubastatin A 0

S100A10 (UniProt P60903)
inactive: sotrastaurin -0.147 | Tubastatin A 0.195 | rucaparib -0.038 | encorafenib -0.293

RWDD2B (UniProt P57060)
inactive: saracatinib 0.135 | sotrastaurin -0.024 | [1] -0.055 | defactinib -0.108 | rucaparib 0.061 | [2] -0.1 | encorafenib 0.111 | [3] -0.283

SAP30 (UniProt O75446)
inactive: saracatinib -0.018 | sotrastaurin -0.185 | [1] 0.121 | defactinib -0.003 | [2] 0.014 | [3] 0.044

S100A1 (UniProt P23297)
inactive: sotrastaurin 0.053 | [1] 0.18

S100A16 (UniProt Q96FQ6)
inactive: saracatinib -0.115 | Tubastatin A 0.151 | [1] 0.204 | defactinib -0.049 | rucaparib -0.071 | [2] 0.087 | encorafenib -0.299 | [3] -0.35

SBF2 (UniProt Q86WG5)
inactive: saracatinib 0.012 | [2] 0.077

RWDD3 (UniProt Q9Y3V2)
inactive: sotrastaurin -0.131

SCAMP3 isoform 2 (UniProt O14828)
inactive: defactinib 0 | rucaparib 0.046 | encorafenib -0.136 | [3] -0.051

SAE1 (UniProt M0R286)
inactive: sotrastaurin 0.118 | alvocidib -0.183 | [1] -0.192 | defactinib 0.002 | [3] -0.054

RRP7A (UniProt Q9Y3A4)
inactive: sotrastaurin 0.037 | alvocidib 0.117 | Tubastatin A -0.03 | [1] -0.061 | defactinib 0.14 | rucaparib 0.097 | encorafenib 0.067 | [3] 0

RTL8C (UniProt A6ZKI3)
inactive: saracatinib 0.012 | defactinib -0.025 | rucaparib -0.101 | [2] -0.106 | encorafenib 0.045 | [3] 0.008

SDHB, A0A087WXX8
inactive: saracatinib -0.039 | alvocidib 0.08 | [1] -0.007 | defactinib 0.024 | [2] -0.147 | [3] 0.205

S100A2 (UniProt P29034)
inactive: saracatinib -0.034 | alvocidib -0.066 | Tubastatin A 0.426 | [1] 0.034 | defactinib -0.254 | rucaparib 0.061 | [2] -0.039 | encorafenib -0.145 | [3] -0.093

RSL24D1 (UniProt Q9UHA3)
inactive: sotrastaurin 0.028 | Tubastatin A 0.162 | [1] 0.161 | defactinib 0.46 | rucaparib 0.398 | encorafenib 0.093 | [3] -0.054

SCN4A (UniProt P35499)
inactive: saracatinib 0.133 | [2] 0.061

SAP130 isoform 3 (UniProt Q9H0E3)
inactive: alvocidib 0.004 | defactinib 0.163 | [3] -0.052

RXRG (UniProt P48443)
inactive: Tubastatin A -0.026

SCAF1 (UniProt Q9H7N4)
inactive: sotrastaurin 0.295

RUBCN (UniProt Q92622)
inactive: defactinib 0.063 | [3] 0.207

SAMD4A (UniProt Q9UPU9)
inactive: saracatinib -0.272 | Tubastatin A -0.024 | [1] 0.073 | [2] -0.277

SAMD4B (UniProt Q5PRF9)
inactive: saracatinib -0.349 | sotrastaurin -0.036 | Tubastatin A 0.167 | [1] -0.132 | [2] 0.096

SDC3 (UniProt O75056)
inactive: saracatinib -0.251 | sotrastaurin -0.074 | Tubastatin A 0.163 | defactinib -0.004 | rucaparib -0.513 | [2] 0.036 | encorafenib 0.125 | [3] 0.034

RXYLT1 (UniProt Q9Y2B1)
inactive: [1] -0.164

S100A14 (UniProt Q9HCY8)
inactive: saracatinib -0.175 | Tubastatin A 0.281 | [1] -0.151 | defactinib -0.1 | rucaparib -0.061 | [2] 0.075 | encorafenib -0.166 | [3] -0.001

Reprinted from the entries so far (two entries):
SAMD4B (UniProt Q5PRF9)
inactive: saracatinib -0.349 | sotrastaurin -0.036 | Tubastatin A 0.167 | [1] -0.132 | [2] 0.096

SDC3 (UniProt O75056)
inactive: saracatinib -0.251 | sotrastaurin -0.074 | Tubastatin A 0.163 | defactinib -0.004 | rucaparib -0.513 | [2] 0.036 | encorafenib 0.125 | [3] 0.034

(list continues)

SDF2 (UniProt Q99470)
inactive: Tubastatin A 0.114 | [1] 0.155

SCAI isoform 2 (UniProt Q8N9R8)
inactive: saracatinib 0.009 | alvocidib -0.021 | [1] 0.016 | defactinib 0.004 | [2] -0.072 | [3] -0.163

RXRB isoform 3 (UniProt P28702)
inactive: sotrastaurin -0.04

RTL10 (UniProt Q7L3V2)
inactive: saracatinib 0.163 | alvocidib -0.005 | Tubastatin A 0.094 | defactinib 0 | [2] -0.398 | [3] -0.198
